PubChem BioAssay AID1508597 | Cure First | 2020
The deposit covers about 2,100 reagents; this is an unselected part. 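Calls flag viability under 80% in either arm, not effects specific to rucaparib; the reference for percent is not stated.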 The record does not give: the 100% reference.

- Assay: 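Genes whose silencing sensitises or protects ovarian cancer cells against rucaparib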 (primary screen)
- Cell system: human ovarian carcinoma lines grown from tumours: OCI-P5x (papillary serous) and OCI-C5x (clear cell)
- Knock-down reagent: siRNA pool against human genes, 1.25 pmol siRNA per well
- Timing: 72 h or 96 h, depending on the cell culture
- Conditions: rucaparib 20 µM (about IC30) or vehicle, present until read-out
- Detection: 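Luminescent ATP-based viability assay read 72 or 96 h after transfection, depending on culture, given as normalised percent viability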
- Direction: viability, normalised: higher = more viable cells remaining
- Hit rule: 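a well counts as a hit if its normalised viability is under 80 percent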
- Meaning of the calls: active = viability under 80%; inactive = viability 80% or more

What did the screen give for CDKL3 (GeneID 51265) [SID405527816], rucaparib or vehicle Rucaparib, cell line OCI-C5x (clear cell), technical replicate 1?
viability, normalised (%): 72.8; Call: active

Which result is listed for CDKL3 (GeneID 51265) [SID405527816], rucaparib or vehicle Rucaparib, cell line OCI-C5x (clear cell), technical replicate 2?
viability, normalised (%): 46.3; Call: active

What is on record for CDKL3 (GeneID 51265) [SID405527816], rucaparib or vehicle Rucaparib, cell line OCI-C5x (clear cell), technical replicate 3?
viability, normalised (%): 84.6; Call: inactive

How did the screen score CDKL3 (GeneID 51265) [SID405527816], rucaparib or vehicle Rucaparib, cell line OCI-P5x (serous), technical replicate 1?
viability, normalised (%): 116; Call: inactive

With CDKL3 (GeneID 51265) [SID405527816], rucaparib or vehicle Rucaparib, cell line OCI-P5x (serous), technical replicate 2, what was measured?
viability, normalised (%): 92.9; Call: inactive

What is on record for CDKL3 (GeneID 51265) [SID405527816], rucaparib or vehicle Rucaparib, cell line OCI-P5x (serous), technical replicate 3?
viability, normalised (%): 87.6; Call: inactive

With CDKL3 (GeneID 51265) [SID405527816], rucaparib or vehicle Vehicle, cell line OCI-C5x (clear cell), technical replicate 1, what was measured?
viability, normalised (%): 50.9; Call: active

What did the screen give for CDKL3 (GeneID 51265) [SID405527816], rucaparib or vehicle Vehicle, cell line OCI-C5x (clear cell), technical replicate 2?
viability, normalised (%): 49.4; Call: active

With CDKL3 (GeneID 51265) [SID405527816], rucaparib or vehicle Vehicle, cell line OCI-C5x (clear cell), technical replicate 3, what does the deposit list?
viability, normalised (%): 48.7; Call: active

For CDKL3 (GeneID 51265) [SID405527816], rucaparib or vehicle Vehicle, cell line OCI-P5x (serous), technical replicate 1, what was measured?
viability, normalised (%): 77.2; Call: active

How did the screen score CDKL3 (GeneID 51265) [SID405527816], rucaparib or vehicle Vehicle, cell line OCI-P5x (serous), technical replicate 2?
viability, normalised (%): 82.3; Call: inactive

Which result is listed for CDKL3 (GeneID 51265) [SID405527816], rucaparib or vehicle Vehicle, cell line OCI-P5x (serous), technical replicate 3?
viability, normalised (%): 76.9; Call: active

For MED30 (GeneID 90390) [SID405527005], rucaparib or vehicle Rucaparib, cell line OCI-C5x (clear cell), technical replicate 1, how do the results read?
viability, normalised (%): 37.4; Call: active

With MED30 (GeneID 90390) [SID405527005], rucaparib or vehicle Rucaparib, cell line OCI-C5x (clear cell), technical replicate 2, what was measured?
viability, normalised (%): 26.4; Call: active

For MED30 (GeneID 90390) [SID405527005], rucaparib or vehicle Rucaparib, cell line OCI-C5x (clear cell), technical replicate 3, how do the results read?
viability, normalised (%): 35; Call: active

What is on record for MED30 (GeneID 90390) [SID405527005], rucaparib or vehicle Rucaparib, cell line OCI-P5x (serous), technical replicate 1?
viability, normalised (%): 44.3; Call: active

For MED30 (GeneID 90390) [SID405527005], rucaparib or vehicle Rucaparib, cell line OCI-P5x (serous), technical replicate 2, how do the results read?
viability, normalised (%): 50.7; Call: active

How did the screen score MED30 (GeneID 90390) [SID405527005], rucaparib or vehicle Rucaparib, cell line OCI-P5x (serous), technical replicate 3?
viability, normalised (%): 53.5; Call: active

For MED30 (GeneID 90390) [SID405527005], rucaparib or vehicle Vehicle, cell line OCI-C5x (clear cell), technical replicate 1, how do the results read?
viability, normalised (%): 39.6; Call: active

For MED30 (GeneID 90390) [SID405527005], rucaparib or vehicle Vehicle, cell line OCI-C5x (clear cell), technical replicate 2, how do the results read?
viability, normalised (%): 41.5; Call: active

What did the screen give for MED30 (GeneID 90390) [SID405527005], rucaparib or vehicle Vehicle, cell line OCI-C5x (clear cell), technical replicate 3?
viability, normalised (%): 38.4; Call: active

What is on record for MED30 (GeneID 90390) [SID405527005], rucaparib or vehicle Vehicle, cell line OCI-P5x (serous), technical replicate 1?
viability, normalised (%): 56.1; Call: active

What did the screen give for MED30 (GeneID 90390) [SID405527005], rucaparib or vehicle Vehicle, cell line OCI-P5x (serous), technical replicate 2?
viability, normalised (%): 61.5; Call: active

For MED30 (GeneID 90390) [SID405527005], rucaparib or vehicle Vehicle, cell line OCI-P5x (serous), technical replicate 3, how do the results read?
viability, normalised (%): 60.4; Call: active

Laid out differently: results already given
{"target gene":"CDKL3 (GeneID 51265)","PubChem SID":"SID405527816","rucaparib or vehicle":"Rucaparib","cell line":"OCI-C5x (clear cell)","technical replicate":"2","viability, normalised (%)":46.3,"Call":"active"}
{"target gene":"CDKL3 (GeneID 51265)","PubChem SID":"SID405527816","rucaparib or vehicle":"Rucaparib","cell line":"OCI-C5x (clear cell)","technical replicate":"3","viability, normalised (%)":84.6,"Call":"inactive"}
{"target gene":"CDKL3 (GeneID 51265)","PubChem SID":"SID405527816","rucaparib or vehicle":"Rucaparib","cell line":"OCI-P5x (serous)","technical replicate":"1","viability, normalised (%)":116,"Call":"inactive"}
{"target gene":"CDKL3 (GeneID 51265)","PubChem SID":"SID405527816","rucaparib or vehicle":"Rucaparib","cell line":"OCI-P5x (serous)","technical replicate":"2","viability, normalised (%)":92.9,"Call":"inactive"}
{"target gene":"CDKL3 (GeneID 51265)","PubChem SID":"SID405527816","rucaparib or vehicle":"Rucaparib","cell line":"OCI-P5x (serous)","technical replicate":"3","viability, normalised (%)":87.6,"Call":"inactive"}
{"target gene":"CDKL3 (GeneID 51265)","PubChem SID":"SID405527816","rucaparib or vehicle":"Vehicle","cell line":"OCI-C5x (clear cell)","technical replicate":"1","viability, normalised (%)":50.9,"Call":"active"}
{"target gene":"CDKL3 (GeneID 51265)","PubChem SID":"SID405527816","rucaparib or vehicle":"Vehicle","cell line":"OCI-C5x (clear cell)","technical replicate":"2","viability, normalised (%)":49.4,"Call":"active"}

Continued.
How did the screen score TAOK2 (GeneID 9344) [SID405527606], rucaparib or vehicle Rucaparib, cell line OCI-C5x (clear cell), technical replicate 1?
viability, normalised (%): 66; Call: active

With TAOK2 (GeneID 9344) [SID405527606], rucaparib or vehicle Rucaparib, cell line OCI-C5x (clear cell), technical replicate 2, how do the results read?
viability, normalised (%): 59; Call: active

With TAOK2 (GeneID 9344) [SID405527606], rucaparib or vehicle Rucaparib, cell line OCI-C5x (clear cell), technical replicate 3, how do the results read?
viability, normalised (%): 71.6; Call: active

What is on record for TAOK2 (GeneID 9344) [SID405527606], rucaparib or vehicle Rucaparib, cell line OCI-P5x (serous), technical replicate 1?
viability, normalised (%): 96.8; Call: inactive

Which result is listed for TAOK2 (GeneID 9344) [SID405527606], rucaparib or vehicle Rucaparib, cell line OCI-P5x (serous), technical replicate 2?
viability, normalised (%): 97.3; Call: inactive

What did the screen give for TAOK2 (GeneID 9344) [SID405527606], rucaparib or vehicle Rucaparib, cell line OCI-P5x (serous), technical replicate 3?
viability, normalised (%): 107; Call: inactive

What is on record for TAOK2 (GeneID 9344) [SID405527606], rucaparib or vehicle Vehicle, cell line OCI-C5x (clear cell), technical replicate 1?
viability, normalised (%): 100; Call: inactive

What did the screen give for TAOK2 (GeneID 9344) [SID405527606], rucaparib or vehicle Vehicle, cell line OCI-C5x (clear cell), technical replicate 2?
viability, normalised (%): 75.4; Call: active

How did the screen score TAOK2 (GeneID 9344) [SID405527606], rucaparib or vehicle Vehicle, cell line OCI-C5x (clear cell), technical replicate 3?
viability, normalised (%): 62.2; Call: active

For TAOK2 (GeneID 9344) [SID405527606], rucaparib or vehicle Vehicle, cell line OCI-P5x (serous), technical replicate 1, what does the deposit list?
viability, normalised (%): 129; Call: inactive

What is on record for TAOK2 (GeneID 9344) [SID405527606], rucaparib or vehicle Vehicle, cell line OCI-P5x (serous), technical replicate 2?
viability, normalised (%): 114; Call: inactive

How did the screen score TAOK2 (GeneID 9344) [SID405527606], rucaparib or vehicle Vehicle, cell line OCI-P5x (serous), technical replicate 3?
viability, normalised (%): 85.7; Call: inactive

For EIF2AK1 (GeneID 27102) [SID405527663], rucaparib or vehicle Rucaparib, cell line OCI-C5x (clear cell), technical replicate 1, what was measured?
viability, normalised (%): 48.7; Call: active

What is on record for EIF2AK1 (GeneID 27102) [SID405527663], rucaparib or vehicle Rucaparib, cell line OCI-C5x (clear cell), technical replicate 2?
viability, normalised (%): 50.3; Call: active

What did the screen give for EIF2AK1 (GeneID 27102) [SID405527663], rucaparib or vehicle Rucaparib, cell line OCI-C5x (clear cell), technical replicate 3?
viability, normalised (%): 67.9; Call: active

What did the screen give for EIF2AK1 (GeneID 27102) [SID405527663], rucaparib or vehicle Rucaparib, cell line OCI-P5x (serous), technical replicate 1?
viability, normalised (%): 36.6; Call: active

What is on record for EIF2AK1 (GeneID 27102) [SID405527663], rucaparib or vehicle Rucaparib, cell line OCI-P5x (serous), technical replicate 2?
viability, normalised (%): 61.6; Call: active

For EIF2AK1 (GeneID 27102) [SID405527663], rucaparib or vehicle Rucaparib, cell line OCI-P5x (serous), technical replicate 3, what does the deposit list?
viability, normalised (%): 77.6; Call: active

Which result is listed for EIF2AK1 (GeneID 27102) [SID405527663], rucaparib or vehicle Vehicle, cell line OCI-C5x (clear cell), technical replicate 1?
viability, normalised (%): 82.5; Call: inactive

How did the screen score EIF2AK1 (GeneID 27102) [SID405527663], rucaparib or vehicle Vehicle, cell line OCI-C5x (clear cell), technical replicate 2?
viability, normalised (%): 57.3; Call: active

For EIF2AK1 (GeneID 27102) [SID405527663], rucaparib or vehicle Vehicle, cell line OCI-C5x (clear cell), technical replicate 3, what was measured?
viability, normalised (%): 51.4; Call: active

What is on record for EIF2AK1 (GeneID 27102) [SID405527663], rucaparib or vehicle Vehicle, cell line OCI-P5x (serous), technical replicate 1?
viability, normalised (%): 57.8; Call: active

For EIF2AK1 (GeneID 27102) [SID405527663], rucaparib or vehicle Vehicle, cell line OCI-P5x (serous), technical replicate 2, what does the deposit list?
viability, normalised (%): 66.8; Call: active

With EIF2AK1 (GeneID 27102) [SID405527663], rucaparib or vehicle Vehicle, cell line OCI-P5x (serous), technical replicate 3, what was measured?
viability, normalised (%): 63.1; Call: active
